In patent US10585102B2, “Characterization of cancer using detection of activated leukocyte cell adhesion molecule (ALCAM) shedding” (Vanderbilt University, priority 2012, dated 2020):
At least one compound was matched to its structure with a doubt left.

Tested on: HEp3 cells
Assay: Transwell migration with pathway inhibitors, with or without anti-CD151 antibody 1A5
Type: cell-based, human

O=c1cc(N2CCOCC2)oc2c(-c3ccccc3)cccc12 [LY294002]
Transwell migration in the presence or absence of inhibitor, with or without 1A5: inhibited migration independent of anti-CD151 antibody treatment
